Out of some 300,000 compounds screened, about 5,400 (1.8%) were called active. Listed are the inconclusive results; actives and inactives stand elsewhere. Calls come from the whole dose curve; tested in HEK293 cells.
Assay: qHTS for inhibitors of binding or entry into cells for Marburg Virus
Details: Marburg virus pseudotyped entry inhibition, cell reporter
Potency is the fitted concentration of half-maximal effect.

| Compound | Potency |
| --- | --- |
| Cc1ccccc1NP(C)(=O)Nc1ccccc1C | inconclusive: 11.2 µM |
| Cc1cc(-c2cccc3ccccc23)c(C)cn1.O=[N+]([O-])c1cc([N+](=O)[O-])c(O)c([N+](=O)[O-])c1 | inconclusive: 11.2 µM |
| CCN(CC)CCCOC(=O)C(O)(c1ccccc1)C1CCCCC1 (centres undefined) | inconclusive: 18.3 µM |
| CCCCCOc1ccc(NP(C)(=O)Oc2ccc(Cl)cc2Cl)cc1 (centres undefined) | inconclusive: 7.94 µM |
| COc1ccc(OP(C)(=O)Nc2ccc(SC(F)(F)F)cc2)cc1 (centres undefined) | inconclusive: 35.5 µM |
| O=C(OCCN1CCN(CCOCc2ccccc2)CC1)C(O)(c1ccccc1)c1ccccc1 | inconclusive: 35.5 µM |
| CC(C)c1ccc(OP(C)(=O)Nc2ccc(SC(F)(F)F)cc2)cc1 (centres undefined) | inconclusive: 35.5 µM |
| Cc1c(NP(C)(=O)Oc2ccc(C(C)C)cc2)c(=O)n(-c2ccccc2)n1C (centres undefined) | inconclusive: 0.164 µM |
| O=[N+]([O-])c1cc([N+](=O)[O-])c(Nc2ccccn2)c([N+](=O)[O-])c1 | inconclusive: 35.5 µM |
| COc1ccccc1OP(C)(=O)Nc1ccc(C)cc1C (centres undefined) | inconclusive: 11.2 µM |
| Cc1cc(C)cc(OP(C)(=O)Nc2cccc(C(F)(F)F)c2)c1 (centres undefined) | inconclusive: 35.5 µM |
| CN(C)C(=O)c1c([N+](=O)[O-])cc([N+](=O)[O-])cc1[N+](=O)[O-] | inconclusive: 29.1 µM |
| CCN(CC)CC(O)COC(=O)C(O)(c1ccccc1)C1CCCCC1 (centres undefined) | inconclusive: 16.4 µM |
| O=C(OCCCN1CCCC1)C(O)(c1ccccc1)C1CCCCC1 (centres undefined) | inconclusive: 35.5 µM |
| CP(=O)(Nc1ccccn1)Oc1ccc(Cl)cc1 (centres undefined) | inconclusive: 6.51 µM |
| Cc1cc(C)cc(OP(C)(=O)Nc2ccc(SC(F)(F)F)cc2)c1 (centres undefined) | inconclusive: 20 µM |
| CP(=S)(Nn1cnnc1)Oc1ccccc1 (centres undefined) | inconclusive: 3.55 µM |
| CC(C)(C)c1ccc(OP(C)(=O)Nc2ccc(SC(F)(F)F)cc2)cc1 (centres undefined) | inconclusive: 17.8 µM |
| O=[N+]([O-])c1ccc2c(c1)C=Nc1ccccc1O2 | inconclusive: 11.2 µM |
| Cc1cc(C)cc(OP(C)(=O)Nc2ccccn2)c1 (centres undefined) | inconclusive: 0.58 µM |
| CP(=O)(Nc1cccc(Br)c1)Oc1ccccc1 (centres undefined) | inconclusive: 35.5 µM |
| CN1CCCCC1COC(=O)C1(O)c2ccccc2CCc2ccccc21 (centres undefined) | inconclusive: 20 µM |
| CCCOc1ccc(NP(C)(=O)Oc2ccc(Cl)cc2)cc1 (centres undefined) | inconclusive: 11.2 µM |
| O=[N+]([O-])c1cc([N+](=O)[O-])c(-c2cnn(-c3ccccc3)c2)c([N+](=O)[O-])c1 | inconclusive: 35.5 µM |

From PubChem BioAssay AID540276 (National Center for Advancing Translational Sciences (NCATS), 2011)
